Assay results taken from publication PMC5021370.

Target: T1, GST-SPARC (aa 18–303) (UniProt P09486)
T1 sequence: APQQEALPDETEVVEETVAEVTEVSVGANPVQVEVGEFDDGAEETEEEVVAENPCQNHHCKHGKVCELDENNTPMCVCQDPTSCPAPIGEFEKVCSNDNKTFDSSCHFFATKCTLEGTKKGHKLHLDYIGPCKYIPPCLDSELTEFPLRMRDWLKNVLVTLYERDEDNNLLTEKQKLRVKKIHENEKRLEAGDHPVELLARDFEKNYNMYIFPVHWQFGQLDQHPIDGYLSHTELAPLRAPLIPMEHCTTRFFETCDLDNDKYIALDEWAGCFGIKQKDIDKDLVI
Test: condition: 2 μg human plasma fibronectin with 10 μg of GST fusion protein; pull-down; 2 μg of rTGFBI or 2 μg human plasma fibronectin incubated with 10 μg of GST fusion protein; pull-down with Glutathione sepharose 4B beads, four washes in GST lysis buffer; Western blot; both purified

- binding: no binding
Substance: human plasma fibronectin

Results are given in words; binding and its absence hold for the method and conditions named. Where a sequence is shown, tags or fusion partners need not be part of it.
